Measurements reported in PubChem BioAssay AID686943 (Drosophila RNAi Screening Center, 2013)
In all, the deposit lists about 23,000 reagents; this is a random part of those with a known target gene and a result. 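Extra replicates exist only for a retested subset of genes; insulin dose and duration not given; both raised and lowered dpERK matter.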 Names joined by + are all predicted targets of the reagent. Not all columns of the deposit are shown. Reagent sequences are not shown. Not given: the amount of reagent, the time to read-out.

Assay: 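Search across the genome for regulators of signalling from receptor tyrosine kinase to ERK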 (primary screen)
Cell system: Drosophila S2R+ haemocyte-like cells expressing YFP-tagged ERK (Rolled)
Reagents: long dsRNA against Drosophila genes
Conditions: insulin stimulation versus unstimulated cells; dose and duration not given
Detection: 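Antibody staining for doubly phosphorylated ERK divided by ERK-YFP signal, as plate z-scores, in insulin-treated and untreated cells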
Reading the numbers: replicate 1, z-score of dpERK with insulin and replicate 2, z-score of dpERK with insulin: higher = more active ERK per ERK-YFP after insulin; replicate 1, z-score of dpERK under basal conditions: higher = more basal active ERK per ERK-YFP

no.	Gene	amplicon	replicate 1, z-score of dpERK with insulin	replicate 2, z-score of dpERK with insulin	replicate 1, z-score of dpERK under basal conditions
1	Nepl11	DRSC12333	0.46	-0.27	0.51
2	Rpp20 + CG33932	DRSC19467	1.2	2.04	-0.39
3	CG6865	DRSC10732	-1.79	-1.42	0.65
4	msi	DRSC17003	-0.57	-1.05	-1.56
5	CG10969	DRSC09811	0.08	0.6	-0.86
6	Jhbp3	DRSC12247	0.24	0.1	-0.1
7	CG6766	DRSC02991	0.22	-0.52	0.38
8	prt	DRSC16894	1.15	0.28	1.35
9	CG31869	DRSC02582	0.5	-0.39	-0.66
10	CG31869	DRSC02674	0.25	0.17	-0.59
11	CG12231	DRSC19445	-0.36	-0.07	0.25
12	inaF-B	DRSC18903	0.83	0.44	0.26
13	Rh3	DRSC16822	0.24	-0.12	-0.06
14	cona	DRSC16281	0.82	0.94	0.25
15	Urod	DRSC07569	-0.21	-0.36	-1.03
16	tsl	DRSC17090	-0.11	-0.06	-0.53
17	Lcp65Ad	DRSC11211	0.34	0.85	-0.87
18	FarO	DRSC18475	0.91	0	-0.12
19	CG33191 + Pif1B	DRSC12706	0.06	-0.67	0.85
20	CG7564	DRSC10880	0.32	-1.6	2.28
21	Uhg2 + snoRNA:Me18S-G1620 + snoRNA:U14:30Ea	DRSC01100	-0.34	-1.21	-1.7
22	CG30357	DRSC22472	0.02	0.84	-0.16
23	CG5783	DRSC02894	-0.71	-1.18	-0.71
24	RhoGAP18B	DRSC19763	0.47	1.9	-0.73
25	RhoGAP18B	DRSC20047	0	2.09	-0.65
26	RhoGAP18B	DRSC20048	-1.66	1.06	-1.1
27	RhoGAP18B	DRSC20049	-0.45	-0.5	-0.76
28	ppk12	DRSC04086	-1.9	-1.69	-0.42
29	Smvt	DRSC15426	-0.23	0.06	-0.07
30	CG11777	DRSC06081	-0.31	0.43	0.02
31	CG10621	DRSC02078	0.39	0.62	0.5
32	Bx	DRSC19350	-1.65	0.43	-1.52
33	Bx	DRSC19624	0.54	1.68	0.24
34	CG13532	DRSC04174	0.76	0.66	0.73
35	CG2017	DRSC12293	-1.02	0.18	1.14
36	Trpm	DRSC06629	-0.83	-0.48	-1.43
37	Trpm	DRSC21566	-0.04	0.88	3.15
38	CG9933	DRSC03276	-1.02	-0.38	-0.54
39	Hr3	DRSC06118	-1.65	-2.01	-2.03
40	Hr3	DRSC07441	0.59	0.2	0.14
41	Prosbeta5R2	DRSC01617	-0.73	-0.66	1.21
42	His3.3A	DRSC03343	-4.3	-4.94	-2.77
43	lectin-30A	DRSC02560	-0.13	0.57	1.22
44	CG9590	DRSC16506	-0.17	0.33	0.06
45	CG17300	DRSC10260	-0.29	-0.22	-0.14
46	CG7886	DRSC16333	-0.07	0.51	-0.86
47	Eato	DRSC01891	-0.42	0.23	2.28
48	Eato	DRSC03061	-0.05	-0.47	-0.6
49	bab1	DRSC08379	-3.49	1.41	-0.95
50	bab1	DRSC08709	-0.89	1.06	-0.57
51	bab1	DRSC21882	0.25	0.02	-0.87
52	Exo70	DRSC10774	-0.23	-0.24	1.28
53	qua	DRSC03598	0.29	-0.2	1.05
54	bi	DRSC18742	0.55	0.98	0.65
55	lncRNA:iab8	DRSC13187	0.62	0.73	0.41
56	lncRNA:iab8	DRSC22252	-2.98	0.31	-0.87
57	Csl4	DRSC02944	0.01	0.68	1.04
58	Csl4	DRSC22664	-0.2	-0.6	1.58
